The record followed here is publication PMC11101658.

Sequences of proteins named here, by UniProt entry; tags and fusion partners are left off.
UniProt P49407: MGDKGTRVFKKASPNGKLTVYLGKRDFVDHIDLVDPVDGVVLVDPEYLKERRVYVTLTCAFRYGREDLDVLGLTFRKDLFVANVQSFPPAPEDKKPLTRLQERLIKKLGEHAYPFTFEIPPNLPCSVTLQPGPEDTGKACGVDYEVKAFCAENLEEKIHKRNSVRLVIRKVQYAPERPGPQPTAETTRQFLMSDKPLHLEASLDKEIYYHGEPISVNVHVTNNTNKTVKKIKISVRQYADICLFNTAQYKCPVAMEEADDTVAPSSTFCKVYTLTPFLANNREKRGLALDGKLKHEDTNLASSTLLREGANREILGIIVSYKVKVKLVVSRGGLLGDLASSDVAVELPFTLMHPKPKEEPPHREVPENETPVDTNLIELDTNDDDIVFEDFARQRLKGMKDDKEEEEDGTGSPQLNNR

No constants are given. Whether binding was seen depends on the method and setting. In cells and extracts the contact can be indirect. Some results given as binding are weak or reduced against the parent protein; the word gives no strength. Where a sequence is shown, tags or fusion partners need not be part of it.

The assay concerns the target T1, GPR120 engineered to fuse with Renilla luciferase (RLuc8) at the C-terminus (mouse) (UniProt Q7TMA4).
T1 sequence: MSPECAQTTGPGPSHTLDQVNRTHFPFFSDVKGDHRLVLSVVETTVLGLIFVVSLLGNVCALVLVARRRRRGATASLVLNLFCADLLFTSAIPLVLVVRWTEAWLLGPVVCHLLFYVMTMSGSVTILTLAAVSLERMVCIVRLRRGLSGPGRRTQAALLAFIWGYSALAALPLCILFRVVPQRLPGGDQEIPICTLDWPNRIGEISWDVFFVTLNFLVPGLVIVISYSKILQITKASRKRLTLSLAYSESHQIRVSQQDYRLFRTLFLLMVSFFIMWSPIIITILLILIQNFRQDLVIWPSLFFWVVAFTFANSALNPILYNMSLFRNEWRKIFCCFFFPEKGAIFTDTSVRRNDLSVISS
The experiment in a line: FRET or BRET; living HEK-293T cells transfected with a 1:5 DNA ratio of GPR120-RLuc8 and mVenus-β-arrestin 1; 5 μM coelenterazine h; fatty acids (THA, EPA) at different concentrations for 5 min in 1x HBSS, 20 mM HEPES pH 7.4, 0.3% BSA; room temperature; BRET ratio for β-arrestin 1 recruitment. (BRET reads energy transfer from a luciferase to a nearby fluorophore.)

In the case of “β-arrestin 1 ligated to mVenus at the N-terminus (from UniProt P49407 1-418)”, the binding entry is “binds”.
